Assay results published in PMC3648463, “Common Interactions between S100A4 and S100A9 Defined by a Novel Chemical Probe” (PLoS ONE, 2013).
Results are given in words; binding and its absence hold for the method and conditions named. For part of these data: In cells and extracts the contact can be indirect. Some binding calls cover weakened binding; strength is not graded here.

The chains behind the UniProt entries cited, without tags or fusion partners.
UniProt P26447: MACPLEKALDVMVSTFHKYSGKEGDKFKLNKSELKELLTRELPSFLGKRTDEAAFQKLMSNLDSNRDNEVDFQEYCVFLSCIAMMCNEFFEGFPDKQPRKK

B1: human S100A9 expressed in 293T cells (protein, UniProt P06702 1-114)
chain: MTCKMSQLERNIETIINTFHQYSVKLGHPDTLNQGEFKELVRKDLQNFLKKENKNEKVIEHIMEDLDTNADKQLSFEEFIMLMARLTWASHEKMHEGDEGPGHHHKPGLGEGTP
B2: recombinant human S100A7 (protein, UniProt P31151 1-101)
chain: MSNTQAERSIIGMIDMFHKYTRRDDKIEKPSLLTMMKENFPNFLSACDKKGTNYLADVFEKKDKNEDKKIDFSEFLSLLGDIATDYHKQSHGAAPCSGGSQ
B3: recombinant human S100A13 (protein, UniProt Q99584 1-98)
chain: MAAEPLTELEESIETVVTTFFTFARQEGRKDSLSVNEFKELVTQQLPHLLKDVGSLDEKMKSLDVNQDSELKFNEYWRLIGELAKEIRKKKDLKIRKK
B4: recombinant human S100A9 (protein, UniProt P06702 1-114)
chain: MTCKMSQLERNIETIINTFHQYSVKLGHPDTLNQGEFKELVRKDLQNFLKKENKNEKVIEHIMEDLDTNADKQLSFEEFIMLMARLTWASHEKMHEGDEGPGHHHKPGLGEGTP

Legend:
[1] = molecular target: human S100A4 expressed in 293T cells (human) (UniProt P26447); experiment: cross-linking; 293T cells co-transfected with S100A4 and S100A9 cDNA, 24 h; 1 mM DSS in PBS, 1 h on ice; lysate, SDS-PAGE, western blot with anti-S100A4 or anti-S100A9
[2] = molecular target: recombinant human S100A4 (human) (UniProt P26447); experiment: SPR; S100A1, A4, A7, A9 and A13 (~1.3 µg/mL) injected (2 min at 30 µL/min) over immobilised S100A4 and S100A9 (~2.5 kRU); 1 mM Ca++ and 20 µM Zn++; responses at late association phase; both purified
[3] = molecular target: recombinant human S100A9 (human) (UniProt P06702); experiment: as above
[4] = molecular target: recombinant human S100A4 (human) (UniProt P26447); experiment: SPR; S100A4 and S100A9 (~1.3 µg/mL) injected over immobilised S100A4 or S100A9 in HBS-P with 1 mM Ca++ without Zn++; both purified

| Binder | binding [1] | binding [2] | binding [3] | binding [4] |
| --- | --- | --- | --- | --- |
| B1 | binds | – | – | – |
| B2 | – | no binding (tested: ~1.3 µg/mL) | no binding (tested: ~1.3 µg/mL) | – |
| B3 | – | no binding (tested: ~1.3 µg/mL) | no binding (tested: ~1.3 µg/mL) | – |
| B4 | – | – | – | no binding (condition: 1 mM Ca++ without 20 µM Zn++) |
